Data as given in PubChem BioAssay AID1224826 (NIAID, 2016).

- Test: 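Regulators of Tlr4 signalling leading to Tnf-alpha expression in macrophages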 (primary screen)
- System: RAW264.7 G9 macrophages from mouse bearing reporters for p65 (GFP) and the Tnf promoter (mCherry)
- Reagents: siRNA pool against mouse genes, 100 nM
- Time to read-out: 16 h of LPS stimulation, after 2 days of siRNA transfection
- Treatment: bacterial lipopolysaccharide (Salmonella minnesota R595), 10 ng/ml
- Detection: 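Nuclear mCherry signal of the Tnf promoter reporter measured by imaging after background removal, scaled to each plate median and turned into robust z-scores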
- Reading the numbers: Tnf reporter robust z-score: higher = stronger Tnf promoter reporter signal after LPS
- Hit rule: 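a well counts as active at a score of -1.3 or below (Tlr4 knock-down control median) or above 3 (raised signal); controls and wells holding fewer than 50 cells are excluded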
- Calls: active = Tnf reporter clearly lowered or raised; inactive = no clear change in Tnf reporter
In all, the deposit lists about 17,000 reagents; below is a random part of them. Of all reagents, about 1,110 (6.6%) got an active call. 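Active means lowered or raised reporter signal; replicate intensities are raw and not normalised per plate.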 Reagents against one gene are numbered here. Not all columns of the deposit are shown.

Gene	pool no.	Tnf reporter robust z-score	fewer than 50 cells in well	activity call
Selenom	1	1.42	enough cells in well	inactive
Usp47	1	0.02	enough cells in well	inactive
Usp47	2	-0.41	enough cells in well	inactive
Dlx5	1	0.39	enough cells in well	inactive
4933431E20Rik	1	-1.29	enough cells in well	inactive
Cyp4a14	1	-0.58	enough cells in well	inactive
Fstl3	1	-0.59	enough cells in well	inactive
Gaa	1	0.85	enough cells in well	inactive
Kcnh2	1	0.46	enough cells in well	inactive
Nrxn1	1	-1.2	enough cells in well	inactive
Rnft1	1	0.87	enough cells in well	inactive
N4bp2l2	1	1.53	enough cells in well	inactive
Tbc1d25	1	-1.83	enough cells in well	active
Thbs1	1	-0.17	enough cells in well	inactive
Zfp959	1	-0.51	enough cells in well	inactive
Ebf3	1	-1	enough cells in well	inactive
Rab39a	1	-0.27	enough cells in well	inactive
Galm	1	0.64	enough cells in well	inactive
Slco1a5	1	-0.52	enough cells in well	inactive
Jpt2	1	-0.53	enough cells in well	inactive
Or5w22	1	-0.16	enough cells in well	inactive
Klhdc4	1	-0.8	enough cells in well	inactive
Zfp799	1	0.72	enough cells in well	inactive
Cpne8	1	2.22	enough cells in well	inactive
Sorcs1	1	-0.51	enough cells in well	inactive
Dazap1	1	-1.82	enough cells in well	active
Nt5c1b	1	1.13	enough cells in well	inactive
Tsc2	1	0.5	enough cells in well	inactive
Ube2j2	1	0.64	enough cells in well	inactive

The list goes on; the last 7 above are carried over.
Gene	pool no.	Tnf reporter robust z-score	fewer than 50 cells in well	activity call
Zfp799	1	0.72	enough cells in well	inactive
Cpne8	1	2.22	enough cells in well	inactive
Sorcs1	1	-0.51	enough cells in well	inactive
Dazap1	1	-1.82	enough cells in well	active
Nt5c1b	1	1.13	enough cells in well	inactive
Tsc2	1	0.5	enough cells in well	inactive
Ube2j2	1	0.64	enough cells in well	inactive
Gpr153	1	1.85	enough cells in well	inactive
Nek11	1	-0.59	enough cells in well	inactive
Vim	1	0.85	enough cells in well	inactive
Lama2	1	-0.1	enough cells in well	inactive
Adam10	1	-1.38	enough cells in well	active
Or5p68	1		fewer than 50 cells per well; well left out of calls	inactive
Itgb1	1	-0.3	enough cells in well	inactive
Chodl	1	-0.32	enough cells in well	inactive
Or5b101	1	1.61	enough cells in well	inactive
Taar5	1	-1.11	enough cells in well	inactive
Hmgb1	1	0.55	enough cells in well	inactive
Gsx1	1	-0.52	enough cells in well	inactive
Tango6	1	0.91	enough cells in well	inactive
Chd6	1	0.52	enough cells in well	inactive
Aldh3a2	1	-0.17	enough cells in well	inactive
Elfn1	1	-0.79	enough cells in well	inactive
Cfl2	1	-1.39	enough cells in well	active
Dpt	1	-1.02	enough cells in well	inactive
Bbc3	1	1.18	enough cells in well	inactive
Tmpo	1	0.43	enough cells in well	inactive
Ptpmt1	1	0.75	enough cells in well	inactive
Or8k25	1	0.02	enough cells in well	inactive
Or8k25	2	2.3	enough cells in well	inactive
Slc5a2	1	-0.01	enough cells in well	inactive
Slc6a2	1	0.05	enough cells in well	inactive
Ripk2	1	0.22	enough cells in well	inactive
Utp15	1	-0.39	enough cells in well	inactive
AI661453	1	-1.45	enough cells in well	active
Mybpc3	1	0.03	enough cells in well	inactive
